Record: PubChem BioAssay AID1671195 (Yale University, 2021)

Purpose: 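Genes whose knockdown alters LDL uptake in liver cancer cells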 (primary screen)
Cells: human Huh7 hepatoma cells
Reagent: siRNA pool against human genes, 18 nM
Timing: about 2 to 2.5 days of knockdown, then 8 h LDL uptake
Conditions: DiI-labelled LDL at 30 µg/ml for 8 h, in lipoprotein-deficient serum medium
Measured: 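Per-cell DiI-LDL intensity by automated imaging; well means scaled to the plate median and given as a robust z-score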
Scale: robust z-score: higher = more LDL uptake after knockdown
Rule for the call: 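a gene counts as active if at least two replicate z-scores exceed ±2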
The deposit covers about 22,000 reagents; shown is a part drawn at random. About 1,510 of all reagents (6.9%) were called active. 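Active includes knockdowns raising or lowering LDL uptake; positive z-scores mean more uptake, negative mean less.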 Unmarked entries are inactive. Reagents against one gene are numbered here.

The opening 7 entries, to show the layout:
no.	gene	pool no.	robust z-score, replicate 1	robust z-score, replicate 2	robust z-score, replicate 3
1	WDTC1	1	0.758	0.821	1.03
2	FAM163A	1	1.74	0.132	0.123
3	XRRA1	1	-0.937	-1.09	-0.243
4	GPM6A	1	-0.171	-0.642	0.264
5	ARL4AP1	1	-2.15	-1.52	-1.78
6	CPA3	1	1.56	1.45	1.14
7	RINT1	1	1.52 (active)	2.11	2.1

Results, repeating the preview:
no.	gene	pool no.	robust z-score, replicate 1	robust z-score, replicate 2	robust z-score, replicate 3
1	WDTC1	1	0.758	0.821	1.03
2	FAM163A	1	1.74	0.132	0.123
3	XRRA1	1	-0.937	-1.09	-0.243
4	GPM6A	1	-0.171	-0.642	0.264
5	ARL4AP1	1	-2.15	-1.52	-1.78
6	CPA3	1	1.56	1.45	1.14
7	RINT1	1	1.52 (active)	2.11	2.1
8	MSRB1P1	1	0.135	0.263	0.122
9	RPL31P4	1	0.0408	-0.377	-0.228
10	BTN2A1	1	-1.26	-1.49	-1.57
11	SPMIP6	1	-0.145	-0.162	-0.342
12	NPIPB11	1	-1.25	-1.54	-1.5
13	PRR11	1	0.188	1.44	-0.737
14	NAB2	1	3.21 (active)	3.33	3.46
15	FAABTP	1	1.6	2.8	1.75
16	RPS2P34	1	-1.89	-2.01	-1.75
17	LOC388496 (retired record)	1	-0.142	-0.194	0.0208
18	SLC68A1	1	0.808	0.863	1.36
19	CDCA7L	1	-1.41	0.197	-1.39
20	REL	1	-1.74	-1.13	-1.76
21	SYF2	1	-1.35	-1.15	-1.9
22	PSIP1	1	-0.032	-0.116	0.244
23	DISP2	1	-0.755	-1.23	-0.965
24	LINC01443	1	-0.201	-0.351	-0.225
25	LOC442532 (retired record)	1	1.92	2.1	1.85
26	MIDEAS	1	-0.412	0.38	-0.191
27	RRM2B	1	1.97	1.77	-0.564
28	LOC442372 (retired record)	1	-1.33	-1.01	-1.05
29	SLC7A6OS	1	0.398	0.526	0.275
30	DNAAF9	1	0.219	1.16	-0.0492
31	LOC387871 (retired record)	1	4.04 (active)	3.02	3.69
32	SEC61A2	1	-0.653	2.56	0.81
33	LOC440206 (retired record)	1	-0.601	-0.748	-0.0348
34	SLC20A1	1	0.489	1.72	2.11
35	BCL2A1	1	1.61	1.05	-0.102
36	FBXO42	1	-1.02	-0.467	-0.0775
37	OAT	1	0.603	2.48	1.14
38	BEX5	1	-1.26	-1.68	-1.37
39	NCF1C	1	-0.785	-1.31	-1.07
40	LOC441578 (retired record)	1	0.669	1.47	1.5
41	MRPS21	1	-1.69	-0.647	-0.616
42	AHSA1	1	0.672	0.0936	0.0451
43	PPIAP74	1	0.657	-0.21	-0.25
44	COX7A2L	1	0.175	-0.172	-0.623
45	LOC442373 (retired record)	1	-0.539	-0.0943	0.383
46	CCNG1	1	-0.754	0.447	-0.174
47	KIF1B	1	-1.93 (active)	-1.57	-2.03
48	MICOS13	1	0.021	0.0855	-0.8
49	INTS11	1	-0.776	-1.03	-1.57
50	GPS2P1	1	-0.969	0.279	0.654
51	LOC400965 (retired record)	1	-0.0374	0.142	0.641
52	RPSAP31	1	-0.204	-0.254	-0.116
53	EPB41L5	1	-1.61	-1.05	-0.822
54	CCR4	1	1.68	1.72	1.41
55	LURAP1L	1	1.26	1.55	1.45
56	DGCR2	1	-1.78	-2.43	-0.854
57	IL5	1	-0.699	-0.0211	-0.0763
58	WNK1	1	5.21 (active)	4.87	7.48
59	WNK1	2	0.708	0.573	0.299
60	PNRC1	1	0.429	-0.835	0.42
61	ZMYND11	1	-0.729	-0.139	-0.33
62	OSR1	1	0.0243	0.226	-1.13
63	CBLL1	1	-0.143	-1.09	-1.13
64	NMRAL1	1	-1.2	-0.655	-0.49
65	ITGA6	1	0.539	-1.31	-1.23
66	SLC28A2	1	-0.81	-0.966	-0.584
67	LINC00588	1	1.62	1.73	0.24
68	MELTF	1	-0.313	-1.11	-0.605
